One experiment concerns the target HLA-I A*11:01 (human). Nature of the experiment: HLA-I immunopeptidomics: W6/32 pulldown from 59M cells, peptide elution, LC-MS/MS.
For experiment [1], the target named is HLA-I A*03:01 (human). The experiment is described as above.
The target in experiment [2] is HLA-I A*03:01 (human). Description: HLA-I immunopeptidomics: W6/32 pulldown from DAC-treated SKOV3ip1 cells, LC-MS/MS.
In the next experiment the target is HLA-I A*68:01 (human). The description is as above.

These are yes or no findings as the source states them, for the method shown. In cells and extracts the contact can be indirect. Binding can be weak; no strength is given.

In the case of VQGPTAVRK [CT45 peptide … (SEQ ID NO:4)], the binding entry in the experiment with HLA-I A*11:01 (human) and with HLA-I A*03:01 (human) [1] was “binds” in each case.

In the case of QGPTAVRK [CT45 peptide QGPTAVRK (SEQ ID NO:5)], the binding entry with HLA-I A*11:01 (human) and with HLA-I A*03:01 (human) [1] was “binds” each time.

In the case of GVQGPTAVR [CT45 peptide … (SEQ ID NO:2)], the binding result with HLA-I A*11:01 (human), with HLA-I A*03:01 (human) [1], in the experiment with HLA-I A*03:01 (human) [2] and with HLA-I A*68:01 (human) was “binds” each time.

Take VAVDPETVFKR [CT45 peptide … (SEQ ID NO:33)]: the binding entry with HLA-I A*03:01 (human) [2] and with HLA-I A*68:01 (human) was “binds” throughout.

Take GVQGPTAVRK [CT45 peptide … (SEQ ID NO:3)]: the binding result with HLA-I A*03:01 (human) [1] is on record as “binds”.

In the case of AVDPETVFK [CT45 peptide … (SEQ ID NO:1)], the binding result with HLA-I A*11:01 (human) and with HLA-I A*03:01 (human) [1] was “binds” each time.

On to EGVQGPTAVR [CT45 peptide … (SEQ ID NO:32)], for which the binding entry with HLA-I A*03:01 (human) [2] and with HLA-I A*68:01 (human) was “binds” throughout.

The values above are taken from patent US20250122255A1.
